In the M2OR odorant receptor database:
This is a selection; strong and weak results do not stand in their true shares. Calls are pooled over several reports, among them a noisy single-well screen.

Chains of the proteins cited; added tags and fusions are not shown. A line that says so, or that is headed by a name, gives the form on record, which may keep a tag or linker.
UniProt Q8VF06, as listed by the source: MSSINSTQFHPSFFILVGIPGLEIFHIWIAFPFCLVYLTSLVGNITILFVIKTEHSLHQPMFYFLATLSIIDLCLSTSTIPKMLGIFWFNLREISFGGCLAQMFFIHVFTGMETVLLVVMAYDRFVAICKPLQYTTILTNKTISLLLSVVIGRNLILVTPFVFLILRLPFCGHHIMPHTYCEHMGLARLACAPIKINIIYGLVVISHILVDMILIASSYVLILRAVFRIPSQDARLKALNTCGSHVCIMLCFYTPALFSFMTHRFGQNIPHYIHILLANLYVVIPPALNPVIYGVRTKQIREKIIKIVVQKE
UniProt Q8VG26, as listed by the source: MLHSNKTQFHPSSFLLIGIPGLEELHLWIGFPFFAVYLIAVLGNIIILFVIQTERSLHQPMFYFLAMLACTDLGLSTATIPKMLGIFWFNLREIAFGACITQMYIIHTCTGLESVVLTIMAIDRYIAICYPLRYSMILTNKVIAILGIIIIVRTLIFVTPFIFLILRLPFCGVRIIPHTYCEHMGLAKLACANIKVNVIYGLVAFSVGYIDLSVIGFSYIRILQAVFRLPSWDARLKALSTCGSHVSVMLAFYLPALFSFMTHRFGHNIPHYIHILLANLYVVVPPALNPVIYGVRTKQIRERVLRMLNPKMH

Legend:
Settings in all cases: stereoisomer not certain
UniProt Q8VF43 = target: T1, UniProt Q8VF43
T1 sequence (whole entry): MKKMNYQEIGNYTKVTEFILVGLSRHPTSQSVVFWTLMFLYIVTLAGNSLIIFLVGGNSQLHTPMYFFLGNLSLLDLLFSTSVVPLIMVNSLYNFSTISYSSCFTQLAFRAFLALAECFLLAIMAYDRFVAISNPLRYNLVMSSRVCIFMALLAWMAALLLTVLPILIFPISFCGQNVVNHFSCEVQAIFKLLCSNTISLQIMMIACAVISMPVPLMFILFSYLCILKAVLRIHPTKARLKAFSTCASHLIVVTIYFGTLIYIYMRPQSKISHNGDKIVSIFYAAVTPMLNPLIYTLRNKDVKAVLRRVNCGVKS
Method in brief: (§1)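 Values were gathered from published papers (main text and supplementary material), with extra details requested from the original authors when needed, and checked for typos and inconsistencies. Each receptor–molecule pair is called responsive (active) if the original authors judged the measured signal statistically different from baseline, and non-responsive (inactive) otherwise. Assay methods varied by source, often transient mammalian cell-line luciferase assays. Recorded details include cell line, G-protein, co-transfected protein and tags.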

UniProt Q8VF52 = target: T2, UniProt Q8VF52
T2 sequence (whole entry): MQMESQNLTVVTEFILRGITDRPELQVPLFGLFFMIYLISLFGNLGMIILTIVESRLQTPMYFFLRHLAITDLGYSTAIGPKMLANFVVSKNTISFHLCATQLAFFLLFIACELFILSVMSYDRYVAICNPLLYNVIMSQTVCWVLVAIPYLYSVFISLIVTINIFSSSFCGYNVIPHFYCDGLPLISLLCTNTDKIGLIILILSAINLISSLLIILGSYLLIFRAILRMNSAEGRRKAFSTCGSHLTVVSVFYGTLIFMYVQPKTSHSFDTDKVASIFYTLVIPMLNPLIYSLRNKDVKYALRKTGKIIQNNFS
Method in brief: as §1

UniProt Q8VFM8 = target: T3, UniProt Q8VFM8
T3 sequence (whole entry): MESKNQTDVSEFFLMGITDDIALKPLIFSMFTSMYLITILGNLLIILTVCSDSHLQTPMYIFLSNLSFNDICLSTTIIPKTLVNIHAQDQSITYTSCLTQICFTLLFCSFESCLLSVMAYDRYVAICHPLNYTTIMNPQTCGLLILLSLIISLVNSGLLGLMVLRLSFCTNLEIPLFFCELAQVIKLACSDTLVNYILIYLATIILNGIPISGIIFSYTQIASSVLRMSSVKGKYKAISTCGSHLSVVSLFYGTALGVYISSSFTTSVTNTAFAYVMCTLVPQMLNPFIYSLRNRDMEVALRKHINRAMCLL
Method in brief: as §1

UniProt Q8VFP5 = target: T4, UniProt Q8VFP5
T4 sequence (whole entry): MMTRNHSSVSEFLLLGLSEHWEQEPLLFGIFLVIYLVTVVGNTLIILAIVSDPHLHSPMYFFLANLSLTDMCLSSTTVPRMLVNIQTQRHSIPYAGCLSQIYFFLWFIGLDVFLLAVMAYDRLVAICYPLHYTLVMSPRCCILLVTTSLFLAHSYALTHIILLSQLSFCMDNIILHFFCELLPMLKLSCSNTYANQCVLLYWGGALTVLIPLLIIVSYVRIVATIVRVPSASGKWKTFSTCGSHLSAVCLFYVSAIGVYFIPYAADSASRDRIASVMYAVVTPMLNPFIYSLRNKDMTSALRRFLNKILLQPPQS
Method in brief: as §1

UniProt Q8VG01 = target: T5, UniProt Q8VG01
T5 sequence (whole entry): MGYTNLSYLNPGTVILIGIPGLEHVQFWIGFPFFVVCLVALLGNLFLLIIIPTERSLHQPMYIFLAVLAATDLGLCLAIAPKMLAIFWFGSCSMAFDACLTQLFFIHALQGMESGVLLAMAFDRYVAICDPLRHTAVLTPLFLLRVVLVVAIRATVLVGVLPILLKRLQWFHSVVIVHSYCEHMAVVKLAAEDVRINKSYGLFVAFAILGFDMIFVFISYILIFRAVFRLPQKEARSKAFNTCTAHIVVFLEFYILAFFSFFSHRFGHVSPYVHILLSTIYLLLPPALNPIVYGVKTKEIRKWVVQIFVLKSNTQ
Method in brief: as §1

UniProt Q8VG27 = target: T6, UniProt Q8VG27
T6 sequence (whole entry): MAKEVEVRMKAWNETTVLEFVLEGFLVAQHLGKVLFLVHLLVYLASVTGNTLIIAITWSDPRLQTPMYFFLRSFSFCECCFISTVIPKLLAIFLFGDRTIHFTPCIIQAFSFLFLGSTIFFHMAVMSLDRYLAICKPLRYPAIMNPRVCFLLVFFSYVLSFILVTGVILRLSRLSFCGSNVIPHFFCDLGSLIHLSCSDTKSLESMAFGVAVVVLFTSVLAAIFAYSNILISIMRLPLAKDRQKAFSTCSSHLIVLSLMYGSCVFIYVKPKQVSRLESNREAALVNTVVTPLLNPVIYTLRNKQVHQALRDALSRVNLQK
Method in brief: as §1

UniProt Q8VEU7 = target: T7, UniProt Q8VEU7
T7 sequence (whole entry): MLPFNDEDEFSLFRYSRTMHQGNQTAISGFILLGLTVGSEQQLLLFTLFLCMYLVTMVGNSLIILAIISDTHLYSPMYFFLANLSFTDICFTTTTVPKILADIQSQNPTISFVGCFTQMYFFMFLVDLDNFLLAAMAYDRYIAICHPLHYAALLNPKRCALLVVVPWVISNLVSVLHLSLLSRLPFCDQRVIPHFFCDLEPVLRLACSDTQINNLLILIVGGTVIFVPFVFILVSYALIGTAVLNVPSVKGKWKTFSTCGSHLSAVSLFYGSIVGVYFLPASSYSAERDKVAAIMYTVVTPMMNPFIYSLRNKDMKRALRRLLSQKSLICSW
Method in brief: as §1

UniProt Q8VF05 = target: T8, UniProt Q8VF05
T8 sequence (whole entry): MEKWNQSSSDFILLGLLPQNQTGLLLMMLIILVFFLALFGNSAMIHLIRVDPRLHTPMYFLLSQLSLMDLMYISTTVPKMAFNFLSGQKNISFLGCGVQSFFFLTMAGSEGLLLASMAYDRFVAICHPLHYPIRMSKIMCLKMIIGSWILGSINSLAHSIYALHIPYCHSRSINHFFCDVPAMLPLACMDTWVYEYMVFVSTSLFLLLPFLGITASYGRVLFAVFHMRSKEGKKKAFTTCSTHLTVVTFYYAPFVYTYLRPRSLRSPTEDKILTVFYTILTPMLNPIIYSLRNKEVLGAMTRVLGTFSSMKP
Method in brief: as §1

UniProt Q8VF06 = target: UniProt Q8VF06
Method in brief: as §1

UniProt Q8VF24 = target: T9, UniProt Q8VF24
T9 sequence (whole entry): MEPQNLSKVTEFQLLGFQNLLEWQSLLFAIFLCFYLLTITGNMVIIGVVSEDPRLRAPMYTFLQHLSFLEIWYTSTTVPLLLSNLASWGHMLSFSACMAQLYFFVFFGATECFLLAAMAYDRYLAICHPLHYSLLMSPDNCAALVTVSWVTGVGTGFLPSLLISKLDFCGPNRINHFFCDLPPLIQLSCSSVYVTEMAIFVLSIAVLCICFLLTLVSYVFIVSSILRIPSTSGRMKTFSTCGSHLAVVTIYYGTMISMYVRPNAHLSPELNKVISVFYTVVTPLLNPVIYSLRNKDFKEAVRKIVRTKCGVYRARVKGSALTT
Method in brief: as §1

UniProt Q8VF44 = target: T10, UniProt Q8VF44
T10 sequence (whole entry): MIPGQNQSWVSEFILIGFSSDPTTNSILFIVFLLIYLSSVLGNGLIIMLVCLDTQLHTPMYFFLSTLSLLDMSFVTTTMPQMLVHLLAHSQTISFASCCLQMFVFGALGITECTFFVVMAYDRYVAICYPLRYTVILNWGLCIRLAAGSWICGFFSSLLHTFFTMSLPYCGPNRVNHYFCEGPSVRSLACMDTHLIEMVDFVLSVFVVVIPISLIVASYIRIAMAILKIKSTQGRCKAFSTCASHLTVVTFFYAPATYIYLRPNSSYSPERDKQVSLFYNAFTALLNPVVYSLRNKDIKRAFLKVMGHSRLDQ
Method in brief: as §1

UniProt Q8VFG6 = target: T11, UniProt Q8VFG6
T11 sequence (whole entry): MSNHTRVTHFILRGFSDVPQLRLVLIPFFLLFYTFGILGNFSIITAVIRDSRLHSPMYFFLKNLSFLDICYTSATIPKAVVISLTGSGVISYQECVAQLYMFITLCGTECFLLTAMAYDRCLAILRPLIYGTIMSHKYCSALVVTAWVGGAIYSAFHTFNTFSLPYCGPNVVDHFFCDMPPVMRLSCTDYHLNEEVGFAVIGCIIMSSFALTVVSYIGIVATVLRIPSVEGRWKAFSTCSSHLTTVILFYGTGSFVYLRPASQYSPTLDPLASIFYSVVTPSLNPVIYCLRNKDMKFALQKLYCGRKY
Method in brief: as §1

UniProt Q8VFZ6 = target: T12, UniProt Q8VFZ6
T12 sequence (whole entry): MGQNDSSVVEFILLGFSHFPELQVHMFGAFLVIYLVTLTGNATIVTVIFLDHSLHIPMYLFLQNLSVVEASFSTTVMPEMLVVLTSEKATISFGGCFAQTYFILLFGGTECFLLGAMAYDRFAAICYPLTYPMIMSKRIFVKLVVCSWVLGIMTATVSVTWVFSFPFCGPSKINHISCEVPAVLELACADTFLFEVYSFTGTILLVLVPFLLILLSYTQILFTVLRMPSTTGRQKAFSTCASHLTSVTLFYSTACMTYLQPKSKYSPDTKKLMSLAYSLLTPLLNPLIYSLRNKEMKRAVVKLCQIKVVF
Method in brief: as §1

UniProt Q8VG22 = target: T13, UniProt Q8VG22
T13 sequence (whole entry): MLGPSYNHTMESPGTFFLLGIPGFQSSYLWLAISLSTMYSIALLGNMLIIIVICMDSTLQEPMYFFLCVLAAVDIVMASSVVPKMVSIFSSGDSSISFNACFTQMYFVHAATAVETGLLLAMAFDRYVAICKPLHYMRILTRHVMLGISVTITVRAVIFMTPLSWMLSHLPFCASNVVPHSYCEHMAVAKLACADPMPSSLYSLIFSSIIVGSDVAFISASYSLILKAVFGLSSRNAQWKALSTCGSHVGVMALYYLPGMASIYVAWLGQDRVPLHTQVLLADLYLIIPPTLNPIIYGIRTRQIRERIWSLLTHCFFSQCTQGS
Method in brief: as §1

UniProt Q8VG26 = target: UniProt Q8VG26
Method in brief: as §1

Row | SMILES | odorant receptor agonist call (UniProt Q8VF43) | odorant receptor agonist call (UniProt Q8VF52) | odorant receptor agonist call (UniProt Q8VFM8) | odorant receptor agonist call (UniProt Q8VFP5) | odorant receptor agonist call (UniProt Q8VG01) | odorant receptor agonist call (UniProt Q8VG27) | odorant receptor agonist call (UniProt Q8VEU7) | odorant receptor agonist call (UniProt Q8VF05) | odorant receptor agonist call (UniProt Q8VF06) | odorant receptor agonist call (UniProt Q8VF24) | odorant receptor agonist call (UniProt Q8VF44) | odorant receptor agonist call (UniProt Q8VFG6) | odorant receptor agonist call (UniProt Q8VFZ6) | odorant receptor agonist call (UniProt Q8VG22) | odorant receptor agonist call (UniProt Q8VG26)
1 | C=CCc1ccc(OC)c(OC)c1 | inactive | active | inactive | inactive | inactive | inactive | – | – | – | – | – | – | – | – | –
2 | CC12CCC(CC1)C(C)(C)O2 | inactive | inactive | inactive | inactive | inactive | inactive | – | – | – | – | – | – | – | – | –
3 | c1cnccn1 | inactive | inactive | inactive | inactive | inactive | inactive | – | – | – | – | – | – | – | – | –
4 | CC(C)C=O | inactive | inactive | inactive | inactive | inactive | inactive | – | – | – | – | – | – | – | – | –
5 | COc1ccccc1O | inactive | inactive | inactive | inactive | inactive | inactive | – | – | – | – | – | – | – | – | –
6 | CCCCCCC=O | inactive | inactive | inactive | inactive | inactive | inactive | inactive | inactive | inactive | inactive | inactive | inactive | inactive | inactive | inactive
7 | C=CCc1ccc(O)c(OC)c1 | inactive | inactive | inactive | inactive | inactive | inactive | – | – | inactive | – | – | – | – | – | inactive
8 | CCCCCC(=O)O | inactive | inactive | inactive | inactive | inactive | inactive | inactive | inactive | inactive | inactive | inactive | inactive | inactive | inactive | inactive
9 | CC(C)(O)CCCC1=CCC(C=O)CC1 (stereo not given) | inactive | inactive | inactive | inactive | inactive | inactive | inactive | inactive | – | inactive | inactive | inactive | inactive | inactive | –
10 | COc1cc(C=O)ccc1O | inactive | inactive | inactive | inactive | inactive | inactive | – | – | – | – | – | – | – | – | –
11 | CCCCCCCCCC=O | inactive | inactive | inactive | inactive | inactive | inactive | inactive | inactive | – | inactive | inactive | inactive | inactive | inactive | –
12 | CCCCCOC(C)=O | inactive | inactive | inactive | inactive | inactive | inactive | – | – | inactive | – | – | – | – | – | inactive
13 | CC12CCC(C1)C(C)(C)C2=O (stereo not given) | – | active | – | – | inactive | – | inactive | active | – | active | inactive | inactive | inactive | inactive | –
14 | CCCCCC(C)=O | inactive | inactive | inactive | inactive | inactive | inactive | inactive | active | – | inactive | inactive | inactive | inactive | inactive | –

Record cards (already shown). Order of values: odorant receptor agonist call (UniProt Q8VF43) | odorant receptor agonist call (UniProt Q8VF52) | odorant receptor agonist call (UniProt Q8VFM8) | odorant receptor agonist call (UniProt Q8VFP5) | odorant receptor agonist call (UniProt Q8VG01) | odorant receptor agonist call (UniProt Q8VG27) | odorant receptor agonist call (UniProt Q8VEU7) | odorant receptor agonist call (UniProt Q8VF05) | odorant receptor agonist call (UniProt Q8VF06) | odorant receptor agonist call (UniProt Q8VF24) | odorant receptor agonist call (UniProt Q8VF44) | odorant receptor agonist call (UniProt Q8VFG6) | odorant receptor agonist call (UniProt Q8VFZ6) | odorant receptor agonist call (UniProt Q8VG22) | odorant receptor agonist call (UniProt Q8VG26)
CC12CCC(CC1)C(C)(C)O2 is listed with inactive | inactive | inactive | inactive | inactive | inactive | – | – | – | – | – | – | – | – | –
CCCCCC(C)=O is listed with inactive | inactive | inactive | inactive | inactive | inactive | inactive | active | – | inactive | inactive | inactive | inactive | inactive | –
